Reference: ChEMBL document CHEMBL1143881, “Sulfonamidolactam inhibitors of coagulation factor Xa” (Bioorg Med Chem Lett, 2008)

Assays:
Plasma = test: Anticoagulant efficacy in human citreated plasma assessed as concentration required to double prothrombin time; format: functional
[1] = Apparent permeability across human Caco-2 cells; format: ADME, cell-based

For `O=C1C(NS(=O)(=O)c2cc3ccc(Cl)nc3s2)CCCN1c1ccc(-n2ccccc2=O)cc1F` (configuration not stated), which PT (Plasma) is on record?
The PT was 32 µM.

What about the Papp [1] of the same compound?
The Papp was 8.3 ×10⁻⁶ cm/s.
